{"source": "PubChem BioAssay AID686938 (Drosophila RNAi Screening Center, 2013)", "aim": "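Fly genes required for calcium entry once internal stores are emptied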 (primary screen)", "cell system": "Drosophila S2R+ cells", "knock-down reagent": "long dsRNA against Drosophila genes, about 0.25 µg dsRNA per well, roughly 10,000 cells", "duration": "5 days of knock-down before the calcium assay", "challenge": "thapsigargin (SERCA pump blocker) to empty calcium stores; entry signal taken 4 min after adding it", "measurement": "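Duplicate raw fluo-4 intensities per well from a plate reader, at rest and four minutes after thapsigargin emptied calcium stores; entry-to-rest ratio filled for only some wells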", "reading the numbers": "calcium entry signal: higher = stronger calcium signal after store depletion; resting calcium signal: higher = higher resting calcium signal", "units": "calcium entry signal in fluorescence units; resting calcium signal in fluorescence units", "active means": "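Called when the plate z-score of the entry-to-rest ratio, mean of duplicates, falls below −3; wells with low overall dye signal (Fmax z below −2) or more than five off-targets excluded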", "meaning of the calls": "active = strongly reduced calcium entry; inactive = no strong reduction", "note": "In all, the deposit lists about 23,000 reagents; shown is an unselected part of those that have a named target and a result. In the full data, 75 (0.33%) are marked active. 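Raw plate signals without normalisation; calls rest on plate z-scores that were not deposited; ratio present for only 364 wells.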 Entries without a mark were called inactive. The record does not give: the dose of the treatment."}
{"gene": "CG34038", "amplicon": "DRSC04039", "calcium entry signal, replicate 1": 2.86e7, "calcium entry signal, replicate 2": 4.82e7, "resting calcium signal, replicate 1": 1.49e7, "resting calcium signal, replicate 2": 2.02e7}
{"gene": "lncRNA:CR43409", "amplicon": "DRSC01164", "calcium entry signal, replicate 1": 3.03e7, "calcium entry signal, replicate 2": 3.14e7, "resting calcium signal, replicate 1": 1.57e7, "resting calcium signal, replicate 2": 1.30e7}
{"gene": "Npc2a", "amplicon": "DRSC00698", "calcium entry signal, replicate 1": 2.40e7, "calcium entry signal, replicate 2": 2.74e7, "resting calcium signal, replicate 1": 1.15e7, "resting calcium signal, replicate 2": 1.27e7}
{"gene": "CG17839", "amplicon": "DRSC10290", "calcium entry signal, replicate 1": 4.43e7, "calcium entry signal, replicate 2": 5.66e7, "resting calcium signal, replicate 1": 1.96e7, "resting calcium signal, replicate 2": 2.06e7}
{"gene": "CG17839", "amplicon": "DRSC10291", "calcium entry signal, replicate 1": 4.06e7, "calcium entry signal, replicate 2": 5.41e7, "resting calcium signal, replicate 1": 1.87e7, "resting calcium signal, replicate 2": 1.96e7}
{"gene": "rgn", "amplicon": "DRSC11609", "calcium entry signal, replicate 1": 3.43e7, "calcium entry signal, replicate 2": 3.30e7, "resting calcium signal, replicate 1": 1.64e7, "resting calcium signal, replicate 2": 2.43e7}
{"gene": "Aps", "amplicon": "DRSC10629", "calcium entry signal, replicate 1": 2.74e7, "calcium entry signal, replicate 2": 3.48e7, "resting calcium signal, replicate 1": 1.41e7, "resting calcium signal, replicate 2": 1.56e7}
{"gene": "Plod", "amplicon": "DRSC10601", "calcium entry signal, replicate 1": 4.95e7, "calcium entry signal, replicate 2": 2.81e7, "resting calcium signal, replicate 1": 3.19e7, "resting calcium signal, replicate 2": 1.36e7}
{"gene": "Plod", "amplicon": "DRSC10602", "calcium entry signal, replicate 1": 3.00e7, "calcium entry signal, replicate 2": 5.33e7, "resting calcium signal, replicate 1": 1.61e7, "resting calcium signal, replicate 2": 2.31e7}
{"gene": "CG9886", "amplicon": "DRSC00732", "calcium entry signal, replicate 1": 3.76e7, "resting calcium signal, replicate 1": 2.09e7}
{"gene": "CG10660", "amplicon": "DRSC09769", "calcium entry signal, replicate 1": 1.47e7, "calcium entry signal, replicate 2": 1.62e7, "resting calcium signal, replicate 1": 1.06e7, "resting calcium signal, replicate 2": 9.31e6}
{"gene": "elg1", "amplicon": "DRSC10229", "calcium entry signal, replicate 1": 3.86e7, "calcium entry signal, replicate 2": 4.71e7, "resting calcium signal, replicate 1": 1.80e7, "resting calcium signal, replicate 2": 3.23e7}
{"gene": "PGAP1", "amplicon": "DRSC18286", "calcium entry signal, replicate 1": 2.89e7, "calcium entry signal, replicate 2": 3.39e7, "resting calcium signal, replicate 1": 1.43e7, "resting calcium signal, replicate 2": 1.59e7}
{"gene": "CG17612", "amplicon": "DRSC00505", "calcium entry signal, replicate 1": 4.38e7, "resting calcium signal, replicate 1": 2.56e7}
{"gene": "CG13055", "amplicon": "DRSC09936", "calcium entry signal, replicate 1": 3.24e7, "calcium entry signal, replicate 2": 5.16e7, "resting calcium signal, replicate 1": 1.87e7, "resting calcium signal, replicate 2": 2.18e7}
{"gene": "CG13228", "amplicon": "DRSC06348", "calcium entry signal, replicate 1": 1.97e7, "calcium entry signal, replicate 2": 3.61e7, "resting calcium signal, replicate 1": 9.10e6, "resting calcium signal, replicate 2": 1.43e7}
{"gene": "CG17570", "amplicon": "DRSC01770", "calcium entry signal, replicate 1": 2.62e7, "calcium entry signal, replicate 2": 4.35e7, "resting calcium signal, replicate 1": 1.28e7, "resting calcium signal, replicate 2": 1.68e7}
{"gene": "CG17570", "amplicon": "DRSC03754", "calcium entry signal, replicate 1": 4.84e7, "calcium entry signal, replicate 2": 5.11e7, "resting calcium signal, replicate 1": 2.53e7, "resting calcium signal, replicate 2": 2.11e7}
{"gene": "Fatp3", "amplicon": "DRSC04366", "calcium entry signal, replicate 1": 3.27e7, "calcium entry signal, replicate 2": 3.82e7, "resting calcium signal, replicate 1": 1.81e7, "resting calcium signal, replicate 2": 1.79e7}
{"gene": "mu2", "amplicon": "DRSC08726", "calcium entry signal, replicate 1": 4.62e7, "calcium entry signal, replicate 2": 3.89e7, "resting calcium signal, replicate 1": 2.10e7, "resting calcium signal, replicate 2": 2.08e7}
{"gene": "mu2", "amplicon": "DRSC21534", "calcium entry signal, replicate 1": 3.97e7, "calcium entry signal, replicate 2": 3.79e7, "resting calcium signal, replicate 1": 2.12e7, "resting calcium signal, replicate 2": 1.93e7}
{"gene": "CG14502", "amplicon": "DRSC06473", "calcium entry signal, replicate 1": 3.61e7, "calcium entry signal, replicate 2": 3.27e7, "resting calcium signal, replicate 1": 1.69e7, "resting calcium signal, replicate 2": 1.76e7}
{"gene": "msn", "amplicon": "DRSC07990", "calcium entry signal, replicate 1": 4.35e7, "calcium entry signal, replicate 2": 4.81e7, "resting calcium signal, replicate 1": 2.55e7, "resting calcium signal, replicate 2": 2.16e7}
{"gene": "msn", "amplicon": "DRSC08498", "calcium entry signal, replicate 1": 4.13e7, "calcium entry signal, replicate 2": 5.48e7, "resting calcium signal, replicate 1": 2.18e7, "resting calcium signal, replicate 2": 2.38e7}
{"gene": "GM130", "amplicon": "DRSC04617", "calcium entry signal, replicate 1": 3.93e7, "resting calcium signal, replicate 1": 1.90e7}
{"gene": "tun", "amplicon": "DRSC05592", "calcium entry signal, replicate 1": 4.67e7, "calcium entry signal, replicate 2": 5.09e7, "resting calcium signal, replicate 1": 4.30e7, "resting calcium signal, replicate 2": 2.19e7}
{"gene": "tun", "amplicon": "DRSC07127", "calcium entry signal, replicate 1": 3.22e7, "calcium entry signal, replicate 2": 2.96e7, "resting calcium signal, replicate 1": 1.58e7, "resting calcium signal, replicate 2": 1.56e7}

Just “calcium entry signal, replicate 1”, for 3 of the entries above:
msn [DRSC08498]: 4.13e7
GM130 [DRSC04617]: 3.93e7
tun [DRSC05592]: 4.67e7
